# Some of the results follow. Most values lie at the level of the controls, where differences are scatter.
# Amino acid sequences for entries named in this document (tags omitted). A change or cut given only in a name is not applied to a line headed by its entry.
# UniProt Q8TEW8: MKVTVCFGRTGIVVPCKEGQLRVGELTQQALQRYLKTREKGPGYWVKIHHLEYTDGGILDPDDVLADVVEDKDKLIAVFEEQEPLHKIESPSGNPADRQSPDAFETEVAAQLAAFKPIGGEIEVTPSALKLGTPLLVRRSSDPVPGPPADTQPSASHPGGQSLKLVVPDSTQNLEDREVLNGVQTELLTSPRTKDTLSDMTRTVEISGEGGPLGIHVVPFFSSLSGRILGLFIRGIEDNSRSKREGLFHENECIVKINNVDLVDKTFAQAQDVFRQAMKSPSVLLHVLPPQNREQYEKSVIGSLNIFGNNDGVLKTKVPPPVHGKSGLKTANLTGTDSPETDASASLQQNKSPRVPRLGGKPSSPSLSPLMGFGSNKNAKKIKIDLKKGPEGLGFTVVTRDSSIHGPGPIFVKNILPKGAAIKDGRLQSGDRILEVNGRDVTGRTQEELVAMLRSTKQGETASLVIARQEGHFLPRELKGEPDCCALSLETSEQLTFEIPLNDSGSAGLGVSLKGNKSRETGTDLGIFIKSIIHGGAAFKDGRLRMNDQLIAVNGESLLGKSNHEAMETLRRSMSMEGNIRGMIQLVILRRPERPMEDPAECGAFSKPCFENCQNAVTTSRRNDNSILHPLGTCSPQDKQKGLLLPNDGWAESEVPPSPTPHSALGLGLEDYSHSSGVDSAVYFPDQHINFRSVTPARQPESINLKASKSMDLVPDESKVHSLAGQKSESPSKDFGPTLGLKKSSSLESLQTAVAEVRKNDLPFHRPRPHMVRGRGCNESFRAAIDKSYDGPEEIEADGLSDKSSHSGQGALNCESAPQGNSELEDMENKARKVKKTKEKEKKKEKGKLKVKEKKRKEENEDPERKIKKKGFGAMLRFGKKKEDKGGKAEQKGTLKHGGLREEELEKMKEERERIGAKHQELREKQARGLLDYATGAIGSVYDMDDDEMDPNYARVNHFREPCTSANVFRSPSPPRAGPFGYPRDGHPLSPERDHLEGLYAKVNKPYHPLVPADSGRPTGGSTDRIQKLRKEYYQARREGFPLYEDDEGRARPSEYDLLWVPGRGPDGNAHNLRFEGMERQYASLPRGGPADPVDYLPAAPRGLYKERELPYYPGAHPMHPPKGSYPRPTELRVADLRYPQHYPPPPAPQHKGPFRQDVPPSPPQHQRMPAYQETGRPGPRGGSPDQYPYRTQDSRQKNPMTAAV
# UniProt Q8WUJ0: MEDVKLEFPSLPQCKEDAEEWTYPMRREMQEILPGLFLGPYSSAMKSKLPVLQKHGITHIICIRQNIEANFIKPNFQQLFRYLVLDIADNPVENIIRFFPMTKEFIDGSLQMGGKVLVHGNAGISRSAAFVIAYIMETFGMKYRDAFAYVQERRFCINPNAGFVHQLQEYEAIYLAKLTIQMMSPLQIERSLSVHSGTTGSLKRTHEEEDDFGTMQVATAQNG
# UniProt Q8TF05: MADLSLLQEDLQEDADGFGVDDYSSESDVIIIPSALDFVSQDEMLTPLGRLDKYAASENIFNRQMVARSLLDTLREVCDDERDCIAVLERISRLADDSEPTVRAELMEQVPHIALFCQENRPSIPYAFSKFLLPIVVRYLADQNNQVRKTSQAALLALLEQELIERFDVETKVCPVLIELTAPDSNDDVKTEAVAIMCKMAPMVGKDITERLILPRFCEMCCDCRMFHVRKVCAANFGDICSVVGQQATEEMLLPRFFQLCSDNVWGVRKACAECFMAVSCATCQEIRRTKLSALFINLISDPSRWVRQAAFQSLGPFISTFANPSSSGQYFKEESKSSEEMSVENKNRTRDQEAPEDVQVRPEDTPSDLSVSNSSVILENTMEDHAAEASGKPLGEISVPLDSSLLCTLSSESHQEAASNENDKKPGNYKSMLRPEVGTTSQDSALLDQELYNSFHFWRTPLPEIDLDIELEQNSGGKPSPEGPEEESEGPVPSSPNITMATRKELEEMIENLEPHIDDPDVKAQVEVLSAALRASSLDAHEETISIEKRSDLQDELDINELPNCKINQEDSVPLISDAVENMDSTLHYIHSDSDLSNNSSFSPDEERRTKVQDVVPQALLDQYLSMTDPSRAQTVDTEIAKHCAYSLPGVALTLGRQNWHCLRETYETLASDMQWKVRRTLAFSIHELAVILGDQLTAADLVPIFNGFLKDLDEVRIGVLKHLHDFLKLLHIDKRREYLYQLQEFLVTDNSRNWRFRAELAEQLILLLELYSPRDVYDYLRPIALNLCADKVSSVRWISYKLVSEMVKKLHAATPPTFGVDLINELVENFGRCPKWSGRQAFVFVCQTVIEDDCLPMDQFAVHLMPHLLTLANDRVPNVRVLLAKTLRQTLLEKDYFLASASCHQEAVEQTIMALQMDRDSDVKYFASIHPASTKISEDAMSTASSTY
# UniProt Q92615, whole entry: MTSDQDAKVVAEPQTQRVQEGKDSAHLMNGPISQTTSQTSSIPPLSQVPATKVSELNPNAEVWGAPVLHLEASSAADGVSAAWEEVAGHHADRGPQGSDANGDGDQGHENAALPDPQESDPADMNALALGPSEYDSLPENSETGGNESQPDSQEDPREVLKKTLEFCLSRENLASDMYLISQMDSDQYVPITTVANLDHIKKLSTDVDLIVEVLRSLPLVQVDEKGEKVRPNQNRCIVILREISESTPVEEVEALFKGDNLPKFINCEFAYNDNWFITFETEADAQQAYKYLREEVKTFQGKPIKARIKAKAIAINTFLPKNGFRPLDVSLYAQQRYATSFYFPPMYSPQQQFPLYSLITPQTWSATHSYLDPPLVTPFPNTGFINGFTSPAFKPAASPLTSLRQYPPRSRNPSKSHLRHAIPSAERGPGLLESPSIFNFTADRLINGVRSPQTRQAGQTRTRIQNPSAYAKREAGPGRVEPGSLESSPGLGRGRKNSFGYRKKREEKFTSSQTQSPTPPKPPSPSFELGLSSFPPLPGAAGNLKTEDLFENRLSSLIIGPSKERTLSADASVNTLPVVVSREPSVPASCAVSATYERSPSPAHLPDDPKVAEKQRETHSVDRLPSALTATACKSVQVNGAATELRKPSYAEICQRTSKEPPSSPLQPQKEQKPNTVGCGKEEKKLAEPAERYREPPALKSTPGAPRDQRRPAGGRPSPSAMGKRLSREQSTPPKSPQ
# UniProt Q8TB03: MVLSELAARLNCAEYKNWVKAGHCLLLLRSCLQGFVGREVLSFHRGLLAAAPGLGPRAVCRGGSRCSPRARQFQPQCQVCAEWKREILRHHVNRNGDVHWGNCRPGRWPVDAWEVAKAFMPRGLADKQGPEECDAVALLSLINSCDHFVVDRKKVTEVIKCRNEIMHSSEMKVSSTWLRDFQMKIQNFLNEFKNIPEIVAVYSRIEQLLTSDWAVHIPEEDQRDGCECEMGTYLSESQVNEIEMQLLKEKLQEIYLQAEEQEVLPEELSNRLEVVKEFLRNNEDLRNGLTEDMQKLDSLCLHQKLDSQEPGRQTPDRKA
# UniProt Q8WYQ9: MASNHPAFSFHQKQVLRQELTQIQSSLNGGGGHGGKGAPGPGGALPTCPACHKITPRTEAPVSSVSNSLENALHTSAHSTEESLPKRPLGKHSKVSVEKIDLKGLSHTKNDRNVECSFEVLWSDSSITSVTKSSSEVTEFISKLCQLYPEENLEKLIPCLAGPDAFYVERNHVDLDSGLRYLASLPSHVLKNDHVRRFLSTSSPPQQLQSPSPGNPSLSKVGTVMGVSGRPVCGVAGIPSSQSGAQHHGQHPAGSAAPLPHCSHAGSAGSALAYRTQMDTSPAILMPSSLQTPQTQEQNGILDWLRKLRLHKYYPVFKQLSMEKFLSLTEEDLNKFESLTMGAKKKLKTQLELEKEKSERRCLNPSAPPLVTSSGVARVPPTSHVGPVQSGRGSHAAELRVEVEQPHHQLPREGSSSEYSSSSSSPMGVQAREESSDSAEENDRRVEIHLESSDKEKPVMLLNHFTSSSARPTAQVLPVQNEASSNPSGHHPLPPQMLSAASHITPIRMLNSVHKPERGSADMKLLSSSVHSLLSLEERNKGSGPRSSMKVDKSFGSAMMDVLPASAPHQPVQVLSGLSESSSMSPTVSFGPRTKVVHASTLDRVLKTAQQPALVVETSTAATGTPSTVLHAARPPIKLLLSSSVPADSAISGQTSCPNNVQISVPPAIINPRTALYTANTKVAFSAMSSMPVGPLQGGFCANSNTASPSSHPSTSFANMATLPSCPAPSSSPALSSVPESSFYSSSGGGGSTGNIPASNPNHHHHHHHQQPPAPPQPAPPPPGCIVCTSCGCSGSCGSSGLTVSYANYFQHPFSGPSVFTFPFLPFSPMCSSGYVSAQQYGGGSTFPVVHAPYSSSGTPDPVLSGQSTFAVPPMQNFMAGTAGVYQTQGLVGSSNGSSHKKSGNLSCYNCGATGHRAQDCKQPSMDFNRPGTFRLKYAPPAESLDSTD
# UniProt Q8WXK3: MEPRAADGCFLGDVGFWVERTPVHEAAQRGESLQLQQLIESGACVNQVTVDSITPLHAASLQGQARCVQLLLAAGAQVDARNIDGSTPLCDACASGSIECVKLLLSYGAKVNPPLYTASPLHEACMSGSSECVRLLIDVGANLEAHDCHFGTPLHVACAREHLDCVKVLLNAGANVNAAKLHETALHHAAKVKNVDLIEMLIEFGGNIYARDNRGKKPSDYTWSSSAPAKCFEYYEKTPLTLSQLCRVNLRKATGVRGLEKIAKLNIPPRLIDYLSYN
# UniProt Q8WVM7: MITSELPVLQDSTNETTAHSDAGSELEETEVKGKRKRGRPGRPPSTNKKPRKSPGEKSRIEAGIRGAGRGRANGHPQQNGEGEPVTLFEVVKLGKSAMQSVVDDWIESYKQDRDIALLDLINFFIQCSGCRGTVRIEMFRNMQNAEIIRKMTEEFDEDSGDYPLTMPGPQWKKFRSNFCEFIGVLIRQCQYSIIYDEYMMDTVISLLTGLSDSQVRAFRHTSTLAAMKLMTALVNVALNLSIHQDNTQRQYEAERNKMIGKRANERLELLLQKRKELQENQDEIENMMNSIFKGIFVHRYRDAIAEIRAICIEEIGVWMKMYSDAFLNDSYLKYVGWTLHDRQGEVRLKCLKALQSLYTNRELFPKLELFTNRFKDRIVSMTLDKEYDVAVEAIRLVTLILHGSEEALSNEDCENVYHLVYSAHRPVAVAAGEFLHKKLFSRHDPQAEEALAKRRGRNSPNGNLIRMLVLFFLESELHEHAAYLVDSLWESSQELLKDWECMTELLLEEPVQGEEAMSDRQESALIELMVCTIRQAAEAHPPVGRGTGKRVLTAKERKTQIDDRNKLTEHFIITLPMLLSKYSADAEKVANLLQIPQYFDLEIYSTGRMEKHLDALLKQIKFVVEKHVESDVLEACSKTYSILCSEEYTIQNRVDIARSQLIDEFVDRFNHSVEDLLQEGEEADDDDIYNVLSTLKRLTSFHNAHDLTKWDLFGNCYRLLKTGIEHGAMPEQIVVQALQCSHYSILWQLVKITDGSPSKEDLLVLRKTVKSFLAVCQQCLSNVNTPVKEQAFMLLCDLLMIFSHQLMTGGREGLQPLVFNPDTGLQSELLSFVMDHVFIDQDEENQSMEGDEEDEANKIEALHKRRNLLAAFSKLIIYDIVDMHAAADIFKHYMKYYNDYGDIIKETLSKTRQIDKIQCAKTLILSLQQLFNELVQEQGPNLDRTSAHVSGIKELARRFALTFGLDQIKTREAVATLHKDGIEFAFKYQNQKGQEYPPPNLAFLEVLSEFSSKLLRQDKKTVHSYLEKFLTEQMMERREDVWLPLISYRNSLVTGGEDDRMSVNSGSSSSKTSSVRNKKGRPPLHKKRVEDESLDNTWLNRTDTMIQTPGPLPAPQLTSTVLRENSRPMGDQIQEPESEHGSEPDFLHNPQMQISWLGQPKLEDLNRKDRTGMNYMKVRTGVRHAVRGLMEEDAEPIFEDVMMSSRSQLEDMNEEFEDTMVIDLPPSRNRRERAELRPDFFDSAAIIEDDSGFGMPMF
# UniProt Q8WVK7: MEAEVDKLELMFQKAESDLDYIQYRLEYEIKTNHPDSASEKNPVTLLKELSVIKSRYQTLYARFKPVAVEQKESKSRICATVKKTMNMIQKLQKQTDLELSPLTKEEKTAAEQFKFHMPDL
# UniProt Q8WV07: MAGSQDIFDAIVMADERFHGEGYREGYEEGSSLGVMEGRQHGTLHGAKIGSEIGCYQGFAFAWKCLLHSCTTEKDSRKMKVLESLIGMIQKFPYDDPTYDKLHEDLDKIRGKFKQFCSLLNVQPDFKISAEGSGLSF
# UniProt Q8WXX5: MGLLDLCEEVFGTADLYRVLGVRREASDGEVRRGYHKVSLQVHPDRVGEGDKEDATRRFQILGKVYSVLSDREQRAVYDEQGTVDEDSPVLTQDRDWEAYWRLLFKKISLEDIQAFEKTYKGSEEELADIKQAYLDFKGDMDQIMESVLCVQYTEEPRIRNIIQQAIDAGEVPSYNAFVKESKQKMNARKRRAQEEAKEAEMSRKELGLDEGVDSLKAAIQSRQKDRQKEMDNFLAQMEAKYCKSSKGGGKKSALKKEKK
# Compound: Cc1nc(Nc2ncc(C(=O)Nc3c(C)cccc3Cl)s2)cc(N2CCN(CCO)CC2)n1 [dasatinib]
# Assay: log2 fold change of tryptic peptide abundance, ligand vs vehicle (limited proteolysis) (log2 ratio); higher = more trypsin-susceptible (destabilized)
# Settings: ligand concentration: 5 uM; sample: K562 cleared lysate
row,Target,log2 fold change
1,"PARD3B (peptide sequence: LGTPLLVR, peptide start residue: 131) (UniProt Q8TEW8)",-0.122
2,"UniProt Q92567 (peptide sequence: TYQASSAAFR, peptide start residue: 93)",-0.0325
3,"SMCR8 (peptide sequence: SIIEHQDLLK, peptide start residue: 242) (UniProt Q8TEV9)",-0.319
4,"DCUN1D4 (peptide sequence: SCSSSDCFNK, peptide start residue: 50) (UniProt Q92564)",0.179
5,"GATAD1 (peptide sequence: SSPFPTVPTRPEK, peptide start residue: 234) (UniProt Q8WUU5)",-0.208
6,"STYX (peptide sequence: SLSVHSGTTGSLKR, peptide start residue: 191) (UniProt Q8WUJ0)",0.00906
7,"ZFAND1 (peptide sequence: LKMHADGDK, peptide start residue: 148) (UniProt Q8TCF1)",-0.708
8,"PHOSPHO2 (peptide sequence: GFWTEFMGR, peptide start residue: 42) (UniProt Q8TCD6)",-0.607
9,"PPP4R1 (peptide sequence: YFASIHPASTK, peptide start residue: 927) (UniProt Q8TF05)",-0.437
10,"MYO18A (peptide sequence: SLEEMSLRR, peptide start residue: 35) (UniProt Q92614)",-0.499
11,"DDX1 (peptide sequence: ELAEQTLNNIK, peptide start residue: 297) (UniProt Q92499)",-0.194
12,"UniProt Q8WVS4 (peptide sequence: SNSFSDKGEER, peptide start residue: 245)",-0.523
13,"UniProt Q92615 (peptide sequence: EPPSSPLQPQK, peptide start residue: 660)",-0.289
14,"PARD3 (peptide sequence: TNQDAMETLRR, peptide start residue: 654) (UniProt Q8TEW0)",-0.72
15,"GAB3 (peptide sequence: EDEESYIEMEEHR, peptide start residue: 501) (UniProt Q8WWW8)",1.04
16,"PPP1R13L (peptide sequence: AMLPGSPLFTR, peptide start residue: 390) (UniProt Q8WUF5)",-0.283
17,"UniProt Q8WVV9 (peptide sequence: NDNDSWDYTKPYLGRR, peptide start residue: 252)",-0.975
18,"UniProt Q8TF01 (peptide sequence: EQNSLSLLEAR, peptide start residue: 462)",-0.173
19,"SNX29 (peptide sequence: ESTQNVTSLLK, peptide start residue: 198) (UniProt Q8TEQ0)",-0.247

row,Target,log2 fold change
1,"CXorf38 (peptide sequence: NGDVHWGNCRPGR, peptide start residue: 95) (UniProt Q8TB03)",0.513
2,"DCAF4 (peptide sequence: ADIPSVAFSSR, peptide start residue: 461) (UniProt Q8WV16)",0.285
3,"UniProt Q8WZA9 (peptide sequence: AALQSQAEALR, peptide start residue: 166)",0.149
4,"UniProt Q8WYQ9 (peptide sequence: LLSSSVHSLLSLEER, peptide start residue: 525)",0.525
5,"RNF141 (peptide sequence: VAELNDVTAK, peptide start residue: 42) (UniProt Q8WVD5)",-0.105
6,"UniProt Q8WXK3 (peptide sequence: LLLSYGAK, peptide start residue: 103)",0.0964
7,"STAG1 (peptide sequence: FLTEQMMER, peptide start residue: 1029) (UniProt Q8WVM7)",0.282
8,"UniProt Q8TCY9 (peptide sequence: VSSTDSDSFVKR, peptide start residue: 419)",0.488
9,"LMO7 (peptide sequence: KEEREEIEK, peptide start residue: 760) (UniProt Q8WWI1)",0.251
10,"ZC3H15 (peptide sequence: EDEISLEDLIERER, peptide start residue: 227) (UniProt Q8WU90)",0.173
11,"DEPDC1B (peptide sequence: HSIAIGEVPACR, peptide start residue: 159) (UniProt Q8WUY9)",-0.48
12,"UniProt Q8WVK7 (peptide sequence: QTDLELSPLTKEEK, peptide start residue: 95)",0.166
13,"CCHCR1 (peptide sequence: AQELEHSDSVK, peptide start residue: 350) (UniProt Q8TD31)",-0.331
14,"UniProt Q8WV07 (peptide sequence: FHGEGYR, peptide start residue: 18)",0.14
15,"TBCK (peptide sequence: ICILDGGINK, peptide start residue: 870) (UniProt Q8TEA7)",-0.191
16,"LRRC20 (peptide sequence: LPSEVSALQHLK, peptide start residue: 89) (UniProt Q8TCA0)",-0.512
17,"DNAJC9 (peptide sequence: EMDNFLAQMEAKYCK, peptide start residue: 230) (UniProt Q8WXX5)",0.219
18,"PTPMT1 (peptide sequence: YQSLGQCVYVHCK, peptide start residue: 121) (UniProt Q8WUK0)",0.735
19,"LEO1 (peptide sequence: LTSDEEGEPSGK, peptide start residue: 628) (UniProt Q8WVC0)",-0.289

# Reformatted with tabs: part of the list above.
row	Target	log2 fold change
9	PPP4R1 (peptide sequence: YFASIHPASTK, peptide start residue: 927) (UniProt Q8TF05)	-0.437
10	MYO18A (peptide sequence: SLEEMSLRR, peptide start residue: 35) (UniProt Q92614)	-0.499

# Source: the supplement of paper PMC12819154, “High-throughput peptide-centric local stability assay extends protein–ligand identification to membrane proteins, tissues and bacteria” (Nature Structural & Molecular Biology, 2025)
